Reference: PubChem BioAssay AID1259308 (NCATS, 2017)

- Purpose: 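Genes whose loss raises luciferase production in HEK293 cells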 (primary screen)
- Cells: human HEK293 embryonic kidney cells stably expressing firefly luciferase (HEK-CMV-Luc2-Hygro)
- Reagents: single siRNA against human genes, 0.8 pmol siRNA per well
- Duration: 72 h
- Read-out: 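Luciferase light (ONE-Glo) measured on one replicate plate set and viability (CellTiter-Glo) on the other, scaled to a negative control siRNA, with robust z-scores and luciferase per cell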
- Direction: total luciferase, z-score: higher = more reporter protein produced
- Rule for the call: 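Active when the median/MAD z-score for overall luciferase is greater than 3; a gene was taken forward for validation with new siRNAs if at least two of its three siRNAs passed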
- Calls: active = raised luciferase; inactive = no rise
Here is one part, drawn at random, of about 59,000 reagents. Over the whole deposit, about 1,510 (2.6%) were called active. 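Calls use total luciferase alone and ignore viability, so some active siRNAs may act by altering cell number.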 Reagents against one gene are numbered here. Further read-outs or replicates are left out here.

no.	Gene	siRNA no.	total luciferase, z-score	call
1	SH3BGR	1	0.312	inactive
2	SH3BGR	2	0.0617	inactive
3	SH3BGR	3	-0.322	inactive
4	AFF2	1	0.422	inactive
5	AFF2	2	2.24	inactive
6	AFF2	3	0.837	inactive
7	NCAPD3	1	-0.0232	inactive
8	NCAPD3	2	-0.911	inactive
9	NCAPD3	3	0.0547	inactive
10	LRRC17	1	1.08	inactive
11	LRRC17	2	-0.869	inactive
12	LRRC17	3	0.488	inactive
13	E2F7	1	1.24	inactive
14	E2F7	2	-1.25	inactive
15	E2F7	3	-1.2	inactive
16	AFMID	1	-0.318	inactive
17	AFMID	2	-0.443	inactive
18	AFMID	3	0.603	inactive
19	USP39	1	1.11	inactive
20	USP39	2	-0.406	inactive
21	USP39	3	1.07	inactive
22	SNAI1	1	-0.926	inactive
23	SNAI1	2	0.293	inactive
24	SNAI1	3	-0.831	inactive

Targets above whose target name starts with S or s (6):
Gene	siRNA no.	total luciferase, z-score	call
SH3BGR	1	0.312	inactive
SH3BGR	2	0.0617	inactive
SH3BGR	3	-0.322	inactive
SNAI1	1	-0.926	inactive
SNAI1	2	0.293	inactive
SNAI1	3	-0.831	inactive
